From PMC9346556

B1: PBANKA_1420100 (protein, UniProt A0A509AQ80 1-993)
chain: MDRIKTEVAFLIYNLEFGKLKNNHQSYVINELNRKINKYTSFILDSSYKHVNNFSYSTNIFHYFYKVTEYYILKYFNSIIVDSIFYFKCINDLKNKSHCGAQNDESKLYKCIYKEKNEKMLENWNNNDSNYYTFDYQVLTNFIQNLKKLYEKNNCVASNAGGKNITKAKDSEKTTRQKNDDNNATKPEKCNNKNEDRQNNENEIKNASESFKFGKTFIYAICEINNSLYNKKNRMICITKIFRKIVNKKKMRKYICENDKMAKKMYLKFILNLSLGIFIYLYMYRYIKKKYKNIDFFIFLNNLKNIRQIYSNNTSYFEKQQIISFIKYIKFINIQMFQYAYISFFVNIYKYINLIHNTTLVTLYYYFKKINKKHKWKIKLIKKKDGKNSGHQNNDPYEYFIIEHDGKQKCNESYCHDNKNVCDKEFVYNQNISNEIGQIEKEKGVKNENVGKNVTKNLEFPQSDNANLNTKNINTKLINDINNKRAIEIGLSGSYDYNNNKQCNIGFNWVEIKKESILSMKNNINGINEIIFDNYIYVFIFYKYIRNIKKSMKYNITKIQSNIKKMIHLFINICKTNNDENNKMEQKMPLSMNTEDTKNISNNILGDQECNNNYINDSTQFLIYFKYIELCKYYKSCIKINYEIIKSVHTFHILLTHFFKYFPVLNFKKGNCIIYNYYDKSYIYKEQASNENIDTKKAGKVNKECFFDIFKNVKDYEIDFLYFNEYQKKKDDVDETLQSIEENNQVESFSEVFHIDDNTNFDSTNLSQNNFTKENINDHENTDNNYSNGYIEGLKKIFLYCINNNLNDFLISVNMEENFQIKRDTSENEKNISIINQNKGDELVKKCRSDSILEILKTNKALYSKILEIIEGFSKGMSNIIQNYEYDLNRYSKKVLDIYDNNVFDIHYKISNQNTIESEEEVKNKKLLEVKIFLDYKKLYNKKTVETQTPVSFFKNDKAIQIAKDTETITISEQFIQTRKNNNPIFYLSDIYS
B2: PBANKA_1142800 (protein, UniProt A0A509AL90 1-602)
chain: MEDKEINNENNNKKDVNKDDDNMQKEDEITKKKTENSEENDLSLAKNVSLGKHLLIGNAVKKGISVSVRGRASNGGLNSKQAGSAWKKKDDKTGDSQGEEKEKKIDDESFPDLLESTEKIKAELVKEKDKKKKQIKDLKKGEENMMNNTFESLDKSKLSDGIFDKQKKMGMNMFDGLKKNDNNTKRWNDYQTNDMDKNSINNMNDNETITGYILPGFKGKHMVGFKCFLKRGMQNPSPSPPSLVYEEVSYFSNIEKSGMQKKFMKLNNQSGQQMNHQMNQQMNQQMNQQMNQQMNQQMNQQMNQQMNQQMNQQMNSSLNNPTINNMMNMHMGYPMNMQMNSPQQRNNHNSVLNNNEEESLNRNNNNINGKFLNEPQHNNQNRFNNNMFKNNNNFNRNSNFFQNKGDDNNAGNGKMMNSGGGMQGNNLNYMKRNDKKEDRGFKKKDIDAEGNWRNAGISNRNDTNDKNNINLTNTNNNGNNRMMRNFGNGNLPGNNKNMFNKNNEDQKNKMYKNNMGNQMANNIGGGHDSFNYSSHNFSNNNNNNNINNENMNDNPNNNKFDYNKNSFNNLNANNKNMNSLDSRKDRMRDVRNINGKNKVNDG
B3: PBANKA_1429100 (protein, UniProt A0A509AUG6 1-112)
chain: MNCEKGINIKAEKINGLYAYDEDDVFSNSTLSDVEKSFKFWDGVNNCDIFNIYKEFEDIDDEEETQDKKEKFVTPKLQHSIETNTTGLDNEATAESSNVKTEKNNQSNPELN

How the values were obtained:
[1] = target: T1, PbLRR1-mCherry (endogenous PbLRR1 fused to a C-terminal mCherry tag) (P. berghei); test: affinity purification with mass spectrometry; RFP-Trap beads on soluble extracts of zygotes of the PbLRR1-mCherry line, parental wild type as control; three biological replicates; t-test, FDR < 0.01, S0 = 1
T1 sequence: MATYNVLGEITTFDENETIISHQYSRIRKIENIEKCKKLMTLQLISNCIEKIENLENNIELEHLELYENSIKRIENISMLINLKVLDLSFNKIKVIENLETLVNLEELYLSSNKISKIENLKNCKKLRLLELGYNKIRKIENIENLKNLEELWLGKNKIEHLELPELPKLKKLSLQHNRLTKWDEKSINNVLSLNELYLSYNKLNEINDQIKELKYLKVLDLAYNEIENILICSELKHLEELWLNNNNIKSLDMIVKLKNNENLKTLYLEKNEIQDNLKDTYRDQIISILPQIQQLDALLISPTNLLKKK

[2] = target: T1, PbLRR1-mCherry (endogenous PbLRR1 fused to a C-terminal mCherry tag) (P. berghei); test: affinity purification with mass spectrometry; RFP-Trap beads on soluble extracts of activated gametocytes of the PbLRR1-mCherry line, parental wild type as control; three biological replicates; t-test, FDR < 0.01, S0 = 1

Binder | binding [1] | binding [2]
B1 | binds | binds
B2 | – | binds
B3 | binds | –

These are yes or no findings as the source states them, for the method shown. In cells and extracts the contact can be indirect. Here binding means that the protein was enriched with, or labelled near, the bait; the list need not be complete. Tags and fused reporters may be left off the sequences shown.
